The experiment deals with T1, recombinant mature human GDF-15 protein (SEQ ID No: 8) (human) (UniProt Q99988).
T1 sequence: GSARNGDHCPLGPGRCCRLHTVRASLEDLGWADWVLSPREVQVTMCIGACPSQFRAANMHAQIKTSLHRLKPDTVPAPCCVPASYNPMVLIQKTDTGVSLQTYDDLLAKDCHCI
In words: colorimetric ELISA, hrGDF-15 coated (25 ng per well), antibody from 333 ng/ml in 1:3 dilutions. Background: An ELISA detects its analyte on a solid surface through an enzyme-linked reagent.

These are yes or no findings as the source states them, for the method shown. Some entries that bind do so weakly or less than the wild type.

B1: H1L5 humanized B1-23 anti-GDF-15 antibody (antibody, human IgG1, V domains shown)
VH: QITLKESGPTLVKPTQTLTLTCTFSGFSLSTSGMGVSWIRQPPGKGLEWLAHIYWDDDKRYNPTLKSRLTITKDPSKNQVVLTMTNMDPVDTATYYCARSSYGAMDYWGQGTLVTVSS
VL: DIVLTQSPSFLSASVGDRVTITCKASQNVGTNVAWFQQKPGKSPKALIYSASYRYSGVPDRFTGSGSGTEFTLTISSLQPEDFAAYFCQQYNNFPYTFGGGTKLEIKR
notes: Human IgG1 (trastuzumab backbone); also called H1L5 anti-GDF-15 antibody; humanized B1-23-H1L5 antibody
With B1, the binding result is “binds”.

Values taken from US20170204174A1 (published 2017).
